Reference: US20210361653A1
No constants are given. Whether binding was seen depends on the method and setting. Some binding calls cover weakened binding; strength is not graded here.

Sequences of proteins named here, by UniProt entry; tags and fusion partners are left off. A change or cut given only in a name is not applied to a line headed by its entry. Residues count along the entry.
UniProt P25440: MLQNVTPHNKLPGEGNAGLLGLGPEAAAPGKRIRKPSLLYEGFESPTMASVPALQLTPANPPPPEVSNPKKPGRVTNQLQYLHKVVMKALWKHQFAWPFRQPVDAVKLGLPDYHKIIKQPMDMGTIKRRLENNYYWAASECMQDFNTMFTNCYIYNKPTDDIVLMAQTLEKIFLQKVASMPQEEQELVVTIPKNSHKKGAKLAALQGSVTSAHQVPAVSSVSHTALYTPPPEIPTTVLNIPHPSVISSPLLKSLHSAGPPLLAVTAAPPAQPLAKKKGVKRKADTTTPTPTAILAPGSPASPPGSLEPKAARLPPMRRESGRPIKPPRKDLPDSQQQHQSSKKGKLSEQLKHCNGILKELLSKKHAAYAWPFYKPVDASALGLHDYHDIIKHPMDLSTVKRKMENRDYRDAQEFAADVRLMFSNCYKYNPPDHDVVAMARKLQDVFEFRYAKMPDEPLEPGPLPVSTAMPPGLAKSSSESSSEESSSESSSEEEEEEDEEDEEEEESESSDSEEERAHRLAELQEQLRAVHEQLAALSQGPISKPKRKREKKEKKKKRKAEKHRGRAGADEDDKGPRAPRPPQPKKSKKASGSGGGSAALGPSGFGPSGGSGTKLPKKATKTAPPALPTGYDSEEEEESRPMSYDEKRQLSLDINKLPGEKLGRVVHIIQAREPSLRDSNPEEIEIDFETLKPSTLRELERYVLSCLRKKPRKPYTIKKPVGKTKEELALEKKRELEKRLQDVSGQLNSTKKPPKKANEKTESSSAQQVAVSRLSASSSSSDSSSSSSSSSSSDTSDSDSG
UniProt Q9Y6Q9, residues 2-1424: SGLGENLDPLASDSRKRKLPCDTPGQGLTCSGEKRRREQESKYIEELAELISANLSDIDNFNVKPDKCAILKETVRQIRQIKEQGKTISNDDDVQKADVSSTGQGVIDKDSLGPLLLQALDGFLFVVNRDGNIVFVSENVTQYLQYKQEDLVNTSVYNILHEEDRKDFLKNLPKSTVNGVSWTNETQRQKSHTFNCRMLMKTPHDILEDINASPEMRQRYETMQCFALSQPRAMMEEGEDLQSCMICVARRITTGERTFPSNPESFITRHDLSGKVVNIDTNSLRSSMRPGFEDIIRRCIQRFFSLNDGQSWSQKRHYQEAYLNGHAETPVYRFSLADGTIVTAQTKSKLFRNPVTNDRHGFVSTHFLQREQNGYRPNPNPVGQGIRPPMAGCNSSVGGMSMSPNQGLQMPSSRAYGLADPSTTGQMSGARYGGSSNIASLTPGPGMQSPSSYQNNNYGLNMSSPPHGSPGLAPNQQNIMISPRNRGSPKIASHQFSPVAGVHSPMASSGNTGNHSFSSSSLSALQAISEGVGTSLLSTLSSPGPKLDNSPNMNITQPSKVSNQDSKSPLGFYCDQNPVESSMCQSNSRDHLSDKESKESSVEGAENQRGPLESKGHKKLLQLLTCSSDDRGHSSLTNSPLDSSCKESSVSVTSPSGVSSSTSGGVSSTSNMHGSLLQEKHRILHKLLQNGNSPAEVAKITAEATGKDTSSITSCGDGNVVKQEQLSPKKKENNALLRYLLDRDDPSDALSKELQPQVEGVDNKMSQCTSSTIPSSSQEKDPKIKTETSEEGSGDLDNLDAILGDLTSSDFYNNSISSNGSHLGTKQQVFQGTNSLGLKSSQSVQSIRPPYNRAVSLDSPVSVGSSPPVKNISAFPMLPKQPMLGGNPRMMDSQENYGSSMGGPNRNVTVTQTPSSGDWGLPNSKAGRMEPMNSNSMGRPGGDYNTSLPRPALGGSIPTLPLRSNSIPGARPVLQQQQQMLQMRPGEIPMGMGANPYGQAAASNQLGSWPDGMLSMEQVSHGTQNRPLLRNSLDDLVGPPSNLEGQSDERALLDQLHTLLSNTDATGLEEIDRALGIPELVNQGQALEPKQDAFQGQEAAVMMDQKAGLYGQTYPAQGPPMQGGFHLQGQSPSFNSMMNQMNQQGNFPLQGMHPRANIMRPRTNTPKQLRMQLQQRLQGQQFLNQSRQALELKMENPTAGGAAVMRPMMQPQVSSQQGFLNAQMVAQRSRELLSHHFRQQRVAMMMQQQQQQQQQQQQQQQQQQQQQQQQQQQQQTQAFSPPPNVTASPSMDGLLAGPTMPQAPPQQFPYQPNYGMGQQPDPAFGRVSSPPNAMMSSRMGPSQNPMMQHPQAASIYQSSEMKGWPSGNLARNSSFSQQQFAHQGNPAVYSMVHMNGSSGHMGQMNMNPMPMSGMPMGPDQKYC
UniProt P04386: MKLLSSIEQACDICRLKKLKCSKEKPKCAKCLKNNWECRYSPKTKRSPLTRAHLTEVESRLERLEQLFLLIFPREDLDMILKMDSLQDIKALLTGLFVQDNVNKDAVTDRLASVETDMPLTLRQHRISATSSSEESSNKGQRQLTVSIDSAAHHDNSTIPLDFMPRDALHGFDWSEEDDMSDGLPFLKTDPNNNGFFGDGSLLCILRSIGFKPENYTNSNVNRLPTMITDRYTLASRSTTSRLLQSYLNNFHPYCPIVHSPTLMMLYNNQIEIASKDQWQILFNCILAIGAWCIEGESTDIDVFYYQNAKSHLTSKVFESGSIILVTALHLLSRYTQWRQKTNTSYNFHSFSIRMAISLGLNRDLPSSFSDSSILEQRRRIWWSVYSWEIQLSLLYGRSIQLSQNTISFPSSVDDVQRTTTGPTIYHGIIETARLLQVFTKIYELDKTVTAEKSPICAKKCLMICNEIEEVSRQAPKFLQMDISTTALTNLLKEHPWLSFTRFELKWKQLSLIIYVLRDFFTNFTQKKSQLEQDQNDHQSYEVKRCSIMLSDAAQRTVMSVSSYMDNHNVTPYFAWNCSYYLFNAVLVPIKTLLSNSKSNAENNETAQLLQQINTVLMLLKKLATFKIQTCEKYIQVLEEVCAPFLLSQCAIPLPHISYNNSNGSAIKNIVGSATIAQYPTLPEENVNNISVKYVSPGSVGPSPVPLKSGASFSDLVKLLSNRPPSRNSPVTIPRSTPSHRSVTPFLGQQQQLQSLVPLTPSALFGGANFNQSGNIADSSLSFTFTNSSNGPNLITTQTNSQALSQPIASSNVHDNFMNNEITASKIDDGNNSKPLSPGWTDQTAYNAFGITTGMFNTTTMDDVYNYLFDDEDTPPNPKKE

Experiments:
[1] = target: T1, DEK (yeast two-hybrid positive clone) (human) (UniProt P35659); experiment: yeast two-hybrid, full-length SPOP bait, human fetal brain cDNA library
T1 sequence (looked up): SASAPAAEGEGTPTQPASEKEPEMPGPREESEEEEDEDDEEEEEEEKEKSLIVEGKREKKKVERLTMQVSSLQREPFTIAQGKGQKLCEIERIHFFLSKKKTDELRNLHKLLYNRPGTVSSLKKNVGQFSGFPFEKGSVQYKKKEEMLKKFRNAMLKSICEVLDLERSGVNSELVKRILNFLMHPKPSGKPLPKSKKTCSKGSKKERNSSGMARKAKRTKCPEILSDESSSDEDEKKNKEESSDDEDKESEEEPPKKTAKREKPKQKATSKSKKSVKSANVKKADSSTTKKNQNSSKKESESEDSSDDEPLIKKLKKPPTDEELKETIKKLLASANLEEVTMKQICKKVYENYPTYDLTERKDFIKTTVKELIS

[2] = target: BRD2 (yeast two-hybrid positive clone) (human) (UniProt P25440); experiment: as above
[3] = target: NCOA3(SRC-3) (yeast two-hybrid positive clone) (human) (UniProt Q9Y6Q9); experiment: as above
[4] = target: T1, DEK (yeast two-hybrid positive clone) (human); experiment: yeast two-hybrid, full-length SPOP bait
[5] = target: BRD2 (yeast two-hybrid positive clone) (human) (UniProt P25440); experiment: yeast two-hybrid, full-length SPOP bait
[6] = target: NCOA3(SRC-3) (yeast two-hybrid positive clone) (human) (UniProt Q9Y6Q9); experiment: yeast two-hybrid, full-length SPOP bait

Measured: binding

full-length SPOP cloned in-frame with the GAL4 DNA binding domain in vector PGBKT7 (from UniProt P04386 1-147; O43791 1-374)
binds: all assays above
